Measurements reported in the supplement of paper PMC12889115.
The other results are listed elsewhere or left out. These are raw signals, not scaled to a control.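 Primary screen: polymyxin B was added at a level permeabilizing Salmonella outer membranes while sparing inner membranes. DMSO wells, both with and without polymyxin B, established maximum growth. Plate-to-plate variation meant each plate was ranked on its own, and the lowest-OD600 compounds were selected as hits.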

Test system: Salmonella enterica serovar Typhimurium SL1344
Experiment: bacterial growth OD600 after 18 h with compound and polymyxin B; higher = more bacterial growth (less inhibition)
Settings: 50 µM, Mueller-Hinton broth

Compound | bacterial growth OD600 (polymyxin B 1 µg/mL) | bacterial growth OD600 (polymyxin B 0.75 µg/mL)
C=C(C)CN(C)C(=O)c1coc(COc2ccc3c(c2)OCO3)n1 | 0.904 | –
COC(=O)c1cc(CNC(=O)CC2NC(=O)c3ccccc32)cc(NC(=O)c2cc(C)nn2C)c1 (configuration not stated) | – | 0.881
COC(=O)CNC(=O)c1ccc(OC2CCN(C3CCCC3)CC2)c(OC)c1 | – | 0.843
COc1ccc2cc(C(=O)C3CCCN(S(=O)(=O)c4c(C)noc4C)C3)ccc2c1 (configuration not stated) | 0.826 | –
CC(=O)c1cccc(OCc2cc(C(=O)N(C)Cc3sccc3C)n[nH]2)c1 | 1.03 | –
O=C(Nc1cccc(-c2cccc(Cl)c2)c1)C1CCN(C(=O)C2CCCO2)CC1 (configuration not stated) | 0.08 | –
COCC(=O)Nc1cc(C(=O)N(C)Cc2ccc3nsnc3c2)c2c(c1)nc(C1CCC1)n2C | – | 0.902
CC1CCN(Cc2nnnn2CCCC(=O)N2CCC(c3ccncc3)CC2)CC1 | 1.03 | –
O=C(Cc1cccc(F)c1)NC1CC(=O)N(C2CCCCCC2)C1 (configuration not stated) | 0.921 | –
CN(CCC1CCCCO1)C(=O)c1csc2nc(-c3ccccc3)cn12 (configuration not stated) | 0.989 | –
COc1ccccc1CN1CCN(C(=O)Cn2nnnc2CN2CCCC2)CC1 | 1.05 | –
O=C(NCC1CCCN(C(=O)CCN2CCCO2)C1)c1ccc(-c2ccccc2)cc1 (configuration not stated) | 0.933 | –
COc1ccc(-c2noc(CN3CCC(OCc4ccccc4)CC3)n2)c(OC)c1OC | 0.945 | –
O=C(CCC1CCN(C(=O)c2cccc3c2C(=O)c2cc(Cl)ccc2-3)CC1)NC1CC1 | 0.854 | –
Cc1c(CCNC(=O)CSc2ccc3nnc(C)n3n2)c2ccccc2n1-c1ccccc1 | – | 0.814
CCCCN(Cc1ccccc1)Cc1nc(Cc2ccccc2F)no1 | 0.842 | –

Compound | bacterial growth OD600 (polymyxin B 1 µg/mL) | bacterial growth OD600 (polymyxin B 0.75 µg/mL)
CC1CCN(Cc2nnnn2CC(=O)NCCc2cccc(C(F)(F)F)c2)CC1 | 1.16 | –
COC(C(=O)Nc1ccnn1C1CCN(C(=O)C(=O)CC(C)C)CC1)c1ccccc1 (configuration not stated) | – | 0.798
O=C(NCc1cccnc1)c1ccc(N2CCC(NCc3cnn(-c4ccccc4)n3)CC2)cc1 | – | 0.719
CC(=O)c1ccc(F)c(-c2cc(C)cc3c2OC(CNC(=O)C2CCC2)C3)c1 (configuration not stated) | – | 0.7
CCC1CN(C(=O)CCC(=O)c2ccc(F)cc2)Cc2ccc(Cl)cc2O1 (configuration not stated) | – | 0.876
O=C(CCc1ccco1)N1CCc2onc(-c3ccccc3F)c2C1 | – | 0.741
COc1ccc(OC)c(C(=O)N2CCCC(N3CCN(c4ccc(F)cc4)CC3)C2)c1 (configuration not stated) | 0.928 | –
COC(=O)C1CCN(C(=O)c2cc(COc3ccc(F)c(F)c3)on2)CC1 | – | 0.77
Cc1cc(-c2ccnc(-n3ncc(C(=O)N(C)CC(O)c4ccccc4)c3C3CC3)n2)c(C)s1 (configuration not stated) | – | 0.668
Cc1ccccc1CCC1CCCN(C(=O)CN2CCOC2=O)C1 (configuration not stated) | 1.03 | –
Cc1cnc(C)c(-c2ccc3c(c2)CC(CNC(=O)Cc2cccs2)O3)n1 (configuration not stated) | – | 0.889
CC(C)c1ccc(NC2CCCN(C(=O)C3(C)CC3)C2)cc1 (configuration not stated) | 0.907 | –
Cc1ccc(N2CCC(N3CC[C@@H](N4CCN(C)CC4)[C@H](O)C3)CC2)cc1Cl | – | 0.801
Cc1ncc2c(c1CNC(=O)/C=C/c1cccs1)CCN(C(=O)C(=O)c1ccccc1)C2 | – | 0.657
Cc1cccc(CCNCc2c(C(=O)N3C[C@@H](C)O[C@@H](C)C3)nc3sccn23)n1 | 0.868 | –
c1ccc(OCc2noc(-c3ccc(NCC4CCCOC4)nc3)n2)cc1 (configuration not stated) | 0.735 | –

Some of the entries above in another layout:
Compound	bacterial growth OD600 (polymyxin B 1 µg/mL)	bacterial growth OD600 (polymyxin B 0.75 µg/mL)
Cc1cnc(C)c(-c2ccc3c(c2)CC(CNC(=O)Cc2cccs2)O3)n1 (configuration not stated)	–	0.889
CC(C)c1ccc(NC2CCCN(C(=O)C3(C)CC3)C2)cc1 (configuration not stated)	0.907	–
